The assay concerns A2780. Description: potency toward A2780. It is filed as cell-based, human. The settings on record: read-out: drug IC50 A2780.

From publication PMC3172808 (Journal of medicinal chemistry, 2011) come the findings set out here.

By IC50 is commonly meant the concentration at which inhibition is half-maximal.

As for `N.N.[Cl][Pt][Cl]` [cisplatin], the half-maximal inhibitory concentration (IC50) is 0.329 µM.
